Measured values: publication PMC11135676
For part of these data: A negative result means that nothing was seen under these conditions. For part of these data: The exact form of at least one protein or probe is not confirmed. For part of these data: The comparison behind a weaker result is the experiment's own reference, which may not be listed here.

Protein sequences, listed by entry. Tags and fused reporters are not part of them. Lines headed by an entry give the natural chain unless they say otherwise; changes in a name come on top. Residues count along the entry.
UniProt P08874, 3-96: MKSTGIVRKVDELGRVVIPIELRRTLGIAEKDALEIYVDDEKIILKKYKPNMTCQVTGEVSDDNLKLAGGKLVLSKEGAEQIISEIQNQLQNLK
UniProt P11065: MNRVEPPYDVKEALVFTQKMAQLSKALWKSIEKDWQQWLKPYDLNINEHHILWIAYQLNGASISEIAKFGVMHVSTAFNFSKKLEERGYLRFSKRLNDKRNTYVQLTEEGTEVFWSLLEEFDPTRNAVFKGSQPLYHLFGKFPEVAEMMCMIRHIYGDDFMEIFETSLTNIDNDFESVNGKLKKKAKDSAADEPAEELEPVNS
UniProt P40762: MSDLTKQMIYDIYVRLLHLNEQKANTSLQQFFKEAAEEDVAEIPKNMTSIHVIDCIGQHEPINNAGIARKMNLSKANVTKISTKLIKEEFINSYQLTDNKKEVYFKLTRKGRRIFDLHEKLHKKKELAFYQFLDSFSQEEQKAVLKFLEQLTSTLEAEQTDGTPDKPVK

Legend:
Test in all cases: EMSA
AbrB = AbrB (UniProt P08874); settings: 500-1000 nM protein; deletion of 59 bp, -14 to +45 relative to TSS; 50 mM Tris pH 8, 1 mM EDTA, 30 mM KCl, 2 mM MgCl2, 2.5 mM DTT, 0.25% Tween 20, 0.5 mg/mL BSA (1X from 5X stock), 10 nM probe, 30 min at 37 C; recombinant protein; residues 3-96; protein details: SUMO-His tag removed by Ulp1; label: 5' IRDye 700; probe letters rebuilt from the primers and the genome; part of a longer molecule
ScoC = ScoC (UniProt P11065); settings: 250-1000 nM protein, band only at 1000 nM (non-specific), none at 250 or 500 nM; deletion of 59 bp, -14 to +45 relative to TSS; 50 mM Tris pH 8, 1 mM EDTA, 30 mM KCl, 2 mM MgCl2, 2.5 mM DTT, 0.25% Tween 20, 0.5 mg/mL BSA (1X from 5X stock), 10 nM probe, 30 min at 37 C; recombinant protein; protein details: SUMO-His tag removed by Ulp1; label: 5' IRDye 700; probe letters rebuilt from the primers and the genome; part of a longer molecule
PchR (YvmB) = PchR (YvmB) (UniProt P40762); settings: 125-250 nM protein, only faint non-specific shift at highest concentration; deletion of 59 bp, -14 to +45 relative to TSS; 50 mM Tris pH 8, 1 mM EDTA, 30 mM KCl, 2 mM MgCl2, 2.5 mM DTT, 0.25% Tween 20, 0.5 mg/mL BSA (1X from 5X stock), 10 nM probe, 30 min at 37 C; recombinant protein; residues 1-169; protein details: SUMO-His tag removed by Ulp1; label: 5' IRDye 700; probe letters rebuilt from the primers and the genome; part of a longer molecule

“TCCGGTCATCTCATTCACCCCTAAAACTTATCCCGCTTTAAGTCATCACCCTCAAATACAAGATGGAATAGCTAGAACAACTGAACAAGACGAATGGCAGGCATCACTTAAAGTTTCCAAATGTTTTTTAAGATTTTAATAATCATTTTCA (double strand) [PyvmC delta59 EMSA probe]”: no binding (AbrB); binds more weakly (ScoC); binds more weakly (PchR (YvmB)).
